From patent publication US11357752B2, “Carolacton and derivatives thereof for use in the treatment of cell proliferation disorders” (Helmholtz-Zentrum für Infektionsforschung GmbH, priority 2017, dated 2022)

Experiments:
Assay in all cases: CellTiter-Glo luminescent cell viability assay
Format in all cases: cell-based, human
HCT 116 cells = system: HCT 116 cells
Procedure: (§1) To evaluate the effects of one compound on 7 cell lines with a CellTiter-Glo Luminescent Cell Viability Assay. Cells were treated with compounds for 72 hours at 37° C./5% CO2 incubator. Compound stock concentration was 20 mM, concentrations to be assayed 100\50\15\10.5\0.1\0.05\0.01\0.005 pM. • i) Materials and Reagents
(§2) a) Cells in log-phase are collected and counted. Cell suspensions are added to each well of 384-w plate at a suitable density. The margin wells are filled with PBS.
(§3) b) Test compound at various concentrations are added in duplicates
(§4) c) The cells were incubated for 72 h in 370/5% CO 2 incubator.
(§5) d) After incubation, CellTiter-Glo® Reagent is added to each test well and shack for 2 minutes on an orbital shaker.
(§6) e) The plates are shortly centrifuged at 90×g for 30 s and incubated at room temperature for additional 10 minutes to stabilize the luminescent signal.
(§7) f) Luminescence signals are detected on PHERAstar Plus.
(§8) g) Data is collected in Microsoft excel forms and analyzed with GraphPad Prism v.6 software. • iii) Data analysis
(§9) The potential effect of the testing compounds an cell proliferation was calculated by the formula below: Inhibition %=[…]
(§10) Since hsMTHFD2 is expressed in human mitochondria and overexpressed in many tumor cells we next aimed to evaluate its potential as an anticancer compound. To this end IC50 values for carolacton were determined for six different cancer cell lines as well as HUVEC cells as primary non-tumor cells. The CellTiter-Glo luminescent cell viability assay (Promega) was used on triplicate cultures grown for three days. Each cell line was tested in three independent experiments (performed at different times and by different experimentators): First, using natural carolacton purified from culture supernatants of Sorangium cellulosum and solved in methanol; second, using carolacton synthesized de novo according to Schmidt et al. 2012 and solved in DMSO; and third, using synthetic carolacton synthesized de novo according to Schmidt et al. 2012 and solved in methanol.

SW626 cells = system: SW626 cells
Procedure: as §1, §2, §3, §4, §5, §6, §7, §8, §9, §10

NK-92 cells = system: NK-92 cells
Procedure: as §1, §2, §3, §4, §5, §6, §7, §8, §9, §10

THP-1 cells = system: THP-1 cells
Procedure: as §1, §2, §3, §4, §5, §6, §7, §8, §9, §10

NCI-N87 cells = details: methanol
Procedure: as §1, §2, §3, §4, §5, §6, §7, §8, §9, §10

HUVEC cells = details: HUVEC (primary)
Procedure: as §1, §2, §3, §4, §5, §6, §7, §8, §9, §10

CO[C@H](CC(=O)O)[C@@H](C)C(=O)[C@H](C)/C=C(\C)[C@H]1OC(=O)[C@H](O)[C@H](O)/C=C/[C@H](C)CCC[C@@H]1C [Carolacton, carolacton]
Hillslope (HCT 116 cells; natural C, methanol): =3.500
Hillslope (HCT 116 cells; synthetic C, DMSO): =3.500
Hillslope (HCT 116 cells; synthetic C, methanol): =3.500
Hillslope (SW626 cells; natural C, methanol): =3.500
Hillslope (SW626 cells; synthetic C, DMSO): =3.500
Hillslope (SW626 cells; synthetic C, methanol): =3.500
Hillslope (NK-92 cells; natural C, methanol): 1.97
Hillslope (NK-92 cells; synthetic C, methanal): 2.261
Hillslope (THP-1 cells; THP 1, synthetic C, methanol): =3.500
Hillslope (THP-1 cells; THP-1, natural C, methanol): 6.64
Hillslope (THP-1 cells; THP-1, synthetic C, DMSO): 9.48E−05
Hillslope (NCI-N87 cells; natural C): 2.62
Hillslope (NCI-N87 cells; synthetic C): =3.500
Hillslope (HUVEC cells; natural C, methanol): 0.45
Hillslope (HUVEC cells; synthetic C, DMSO): 0.3523
Hillslope (HUVEC cells; synthetic C, methanol): 0.2985
